Data reported in the supplement of paper PMC5836539.
± gives the standard deviation of the averaged measurements. Repeats in this data set agree poorly, so a single value says little.

The chains behind the UniProt entries cited, without tags or fusion partners. Where a name states a change or a piece, a line headed by the entry shows the natural chain unless it says otherwise.
UniProt Q9UQ35: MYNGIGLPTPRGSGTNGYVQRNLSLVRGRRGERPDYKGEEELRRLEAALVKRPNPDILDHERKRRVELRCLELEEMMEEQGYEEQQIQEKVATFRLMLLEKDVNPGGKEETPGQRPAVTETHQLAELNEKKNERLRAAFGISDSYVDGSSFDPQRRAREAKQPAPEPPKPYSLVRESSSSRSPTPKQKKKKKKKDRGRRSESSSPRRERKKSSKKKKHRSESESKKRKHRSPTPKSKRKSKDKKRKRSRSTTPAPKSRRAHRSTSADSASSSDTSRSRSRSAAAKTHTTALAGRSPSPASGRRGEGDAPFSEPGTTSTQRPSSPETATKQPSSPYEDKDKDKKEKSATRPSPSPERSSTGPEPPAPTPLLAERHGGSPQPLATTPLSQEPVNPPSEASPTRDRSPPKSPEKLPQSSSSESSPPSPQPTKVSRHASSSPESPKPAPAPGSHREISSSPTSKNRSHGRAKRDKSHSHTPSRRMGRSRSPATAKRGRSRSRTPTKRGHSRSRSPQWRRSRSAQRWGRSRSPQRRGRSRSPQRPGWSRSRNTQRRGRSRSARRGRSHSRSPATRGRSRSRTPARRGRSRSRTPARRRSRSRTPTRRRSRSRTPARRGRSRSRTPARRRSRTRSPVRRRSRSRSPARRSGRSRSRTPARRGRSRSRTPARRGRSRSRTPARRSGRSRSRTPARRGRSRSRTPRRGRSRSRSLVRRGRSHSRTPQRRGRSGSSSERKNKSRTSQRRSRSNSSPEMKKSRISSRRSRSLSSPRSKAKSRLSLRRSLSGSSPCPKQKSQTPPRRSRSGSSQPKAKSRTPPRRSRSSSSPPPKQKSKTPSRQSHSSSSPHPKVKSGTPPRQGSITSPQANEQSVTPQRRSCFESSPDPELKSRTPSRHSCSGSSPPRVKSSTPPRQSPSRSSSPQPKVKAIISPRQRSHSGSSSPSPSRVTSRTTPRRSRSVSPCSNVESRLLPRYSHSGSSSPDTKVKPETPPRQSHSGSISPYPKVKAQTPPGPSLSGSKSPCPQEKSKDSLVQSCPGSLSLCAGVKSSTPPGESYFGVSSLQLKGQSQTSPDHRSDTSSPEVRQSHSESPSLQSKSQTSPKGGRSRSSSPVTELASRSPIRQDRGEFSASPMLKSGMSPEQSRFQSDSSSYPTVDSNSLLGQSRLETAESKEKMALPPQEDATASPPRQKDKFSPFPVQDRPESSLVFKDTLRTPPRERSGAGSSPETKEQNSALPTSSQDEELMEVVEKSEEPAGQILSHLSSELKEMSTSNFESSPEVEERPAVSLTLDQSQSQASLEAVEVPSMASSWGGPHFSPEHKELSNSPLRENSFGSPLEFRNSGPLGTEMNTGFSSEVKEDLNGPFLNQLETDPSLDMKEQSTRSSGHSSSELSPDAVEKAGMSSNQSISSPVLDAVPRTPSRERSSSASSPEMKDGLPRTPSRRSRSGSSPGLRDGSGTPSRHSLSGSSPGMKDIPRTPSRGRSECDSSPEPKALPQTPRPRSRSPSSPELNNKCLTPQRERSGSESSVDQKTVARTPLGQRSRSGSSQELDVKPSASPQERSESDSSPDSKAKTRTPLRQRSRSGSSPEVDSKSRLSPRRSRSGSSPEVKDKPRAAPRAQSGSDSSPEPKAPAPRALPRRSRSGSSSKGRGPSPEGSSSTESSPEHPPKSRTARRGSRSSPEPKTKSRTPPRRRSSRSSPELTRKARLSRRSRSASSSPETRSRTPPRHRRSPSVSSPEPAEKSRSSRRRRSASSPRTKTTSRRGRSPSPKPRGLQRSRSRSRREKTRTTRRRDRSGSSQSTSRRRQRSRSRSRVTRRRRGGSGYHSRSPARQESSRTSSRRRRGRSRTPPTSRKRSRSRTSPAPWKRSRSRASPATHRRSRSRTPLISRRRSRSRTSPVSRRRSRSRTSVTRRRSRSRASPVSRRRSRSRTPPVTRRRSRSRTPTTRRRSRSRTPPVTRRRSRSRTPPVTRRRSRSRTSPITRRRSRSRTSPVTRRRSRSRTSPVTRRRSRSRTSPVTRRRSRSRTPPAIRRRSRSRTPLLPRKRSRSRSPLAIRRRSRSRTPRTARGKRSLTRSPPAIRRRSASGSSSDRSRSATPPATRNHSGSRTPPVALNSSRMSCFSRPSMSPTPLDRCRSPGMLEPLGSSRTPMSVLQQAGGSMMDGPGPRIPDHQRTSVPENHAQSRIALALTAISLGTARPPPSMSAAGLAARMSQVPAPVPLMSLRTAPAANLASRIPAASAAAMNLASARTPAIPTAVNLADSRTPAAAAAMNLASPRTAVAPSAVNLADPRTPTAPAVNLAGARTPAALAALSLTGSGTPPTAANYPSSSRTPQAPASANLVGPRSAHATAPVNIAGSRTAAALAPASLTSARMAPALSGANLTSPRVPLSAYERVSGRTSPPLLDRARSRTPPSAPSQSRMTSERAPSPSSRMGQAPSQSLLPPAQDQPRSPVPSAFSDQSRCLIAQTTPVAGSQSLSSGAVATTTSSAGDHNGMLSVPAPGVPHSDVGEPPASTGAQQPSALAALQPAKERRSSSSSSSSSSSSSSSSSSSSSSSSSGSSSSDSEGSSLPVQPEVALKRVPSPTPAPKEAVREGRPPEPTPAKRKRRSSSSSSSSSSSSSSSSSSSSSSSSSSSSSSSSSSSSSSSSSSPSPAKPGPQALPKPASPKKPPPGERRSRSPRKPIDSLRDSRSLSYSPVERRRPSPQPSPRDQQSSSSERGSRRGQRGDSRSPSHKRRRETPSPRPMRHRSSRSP
UniProt Q9NRL3: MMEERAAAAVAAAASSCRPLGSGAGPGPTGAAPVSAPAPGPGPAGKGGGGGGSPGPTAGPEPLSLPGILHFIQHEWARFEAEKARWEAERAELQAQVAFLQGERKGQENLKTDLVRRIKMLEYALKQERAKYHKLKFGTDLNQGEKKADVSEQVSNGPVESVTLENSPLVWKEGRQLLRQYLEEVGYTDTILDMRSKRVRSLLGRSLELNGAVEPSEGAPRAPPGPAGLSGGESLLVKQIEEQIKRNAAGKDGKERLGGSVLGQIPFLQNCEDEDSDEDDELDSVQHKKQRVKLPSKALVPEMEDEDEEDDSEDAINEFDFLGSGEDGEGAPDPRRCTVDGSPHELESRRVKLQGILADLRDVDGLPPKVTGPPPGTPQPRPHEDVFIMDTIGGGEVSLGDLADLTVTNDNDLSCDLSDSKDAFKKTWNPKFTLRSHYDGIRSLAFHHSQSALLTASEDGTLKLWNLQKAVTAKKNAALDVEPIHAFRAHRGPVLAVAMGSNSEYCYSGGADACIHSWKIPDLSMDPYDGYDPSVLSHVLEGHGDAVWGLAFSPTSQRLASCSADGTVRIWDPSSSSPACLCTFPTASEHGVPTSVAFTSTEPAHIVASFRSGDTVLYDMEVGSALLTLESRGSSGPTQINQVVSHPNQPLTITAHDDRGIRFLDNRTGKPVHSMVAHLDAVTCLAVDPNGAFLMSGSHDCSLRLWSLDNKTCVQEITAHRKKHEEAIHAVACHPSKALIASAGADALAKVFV
UniProt P42166: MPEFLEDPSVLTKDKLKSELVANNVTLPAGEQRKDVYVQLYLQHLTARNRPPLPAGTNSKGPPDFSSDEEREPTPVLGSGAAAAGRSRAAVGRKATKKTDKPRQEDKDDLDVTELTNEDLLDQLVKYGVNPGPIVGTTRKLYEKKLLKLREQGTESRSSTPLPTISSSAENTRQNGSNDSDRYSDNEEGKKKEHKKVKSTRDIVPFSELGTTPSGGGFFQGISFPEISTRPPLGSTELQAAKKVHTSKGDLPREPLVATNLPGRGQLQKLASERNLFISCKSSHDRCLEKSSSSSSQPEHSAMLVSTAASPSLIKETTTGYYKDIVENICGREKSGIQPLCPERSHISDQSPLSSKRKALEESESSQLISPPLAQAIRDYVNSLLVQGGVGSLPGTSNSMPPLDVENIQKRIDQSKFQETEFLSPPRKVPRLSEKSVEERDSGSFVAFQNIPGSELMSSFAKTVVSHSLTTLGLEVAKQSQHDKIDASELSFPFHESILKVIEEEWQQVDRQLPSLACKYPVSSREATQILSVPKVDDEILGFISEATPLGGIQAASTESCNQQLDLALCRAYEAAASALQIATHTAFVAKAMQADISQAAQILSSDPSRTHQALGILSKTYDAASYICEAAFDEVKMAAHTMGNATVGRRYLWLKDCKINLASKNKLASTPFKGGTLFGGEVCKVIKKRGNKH
UniProt Q9C0C2: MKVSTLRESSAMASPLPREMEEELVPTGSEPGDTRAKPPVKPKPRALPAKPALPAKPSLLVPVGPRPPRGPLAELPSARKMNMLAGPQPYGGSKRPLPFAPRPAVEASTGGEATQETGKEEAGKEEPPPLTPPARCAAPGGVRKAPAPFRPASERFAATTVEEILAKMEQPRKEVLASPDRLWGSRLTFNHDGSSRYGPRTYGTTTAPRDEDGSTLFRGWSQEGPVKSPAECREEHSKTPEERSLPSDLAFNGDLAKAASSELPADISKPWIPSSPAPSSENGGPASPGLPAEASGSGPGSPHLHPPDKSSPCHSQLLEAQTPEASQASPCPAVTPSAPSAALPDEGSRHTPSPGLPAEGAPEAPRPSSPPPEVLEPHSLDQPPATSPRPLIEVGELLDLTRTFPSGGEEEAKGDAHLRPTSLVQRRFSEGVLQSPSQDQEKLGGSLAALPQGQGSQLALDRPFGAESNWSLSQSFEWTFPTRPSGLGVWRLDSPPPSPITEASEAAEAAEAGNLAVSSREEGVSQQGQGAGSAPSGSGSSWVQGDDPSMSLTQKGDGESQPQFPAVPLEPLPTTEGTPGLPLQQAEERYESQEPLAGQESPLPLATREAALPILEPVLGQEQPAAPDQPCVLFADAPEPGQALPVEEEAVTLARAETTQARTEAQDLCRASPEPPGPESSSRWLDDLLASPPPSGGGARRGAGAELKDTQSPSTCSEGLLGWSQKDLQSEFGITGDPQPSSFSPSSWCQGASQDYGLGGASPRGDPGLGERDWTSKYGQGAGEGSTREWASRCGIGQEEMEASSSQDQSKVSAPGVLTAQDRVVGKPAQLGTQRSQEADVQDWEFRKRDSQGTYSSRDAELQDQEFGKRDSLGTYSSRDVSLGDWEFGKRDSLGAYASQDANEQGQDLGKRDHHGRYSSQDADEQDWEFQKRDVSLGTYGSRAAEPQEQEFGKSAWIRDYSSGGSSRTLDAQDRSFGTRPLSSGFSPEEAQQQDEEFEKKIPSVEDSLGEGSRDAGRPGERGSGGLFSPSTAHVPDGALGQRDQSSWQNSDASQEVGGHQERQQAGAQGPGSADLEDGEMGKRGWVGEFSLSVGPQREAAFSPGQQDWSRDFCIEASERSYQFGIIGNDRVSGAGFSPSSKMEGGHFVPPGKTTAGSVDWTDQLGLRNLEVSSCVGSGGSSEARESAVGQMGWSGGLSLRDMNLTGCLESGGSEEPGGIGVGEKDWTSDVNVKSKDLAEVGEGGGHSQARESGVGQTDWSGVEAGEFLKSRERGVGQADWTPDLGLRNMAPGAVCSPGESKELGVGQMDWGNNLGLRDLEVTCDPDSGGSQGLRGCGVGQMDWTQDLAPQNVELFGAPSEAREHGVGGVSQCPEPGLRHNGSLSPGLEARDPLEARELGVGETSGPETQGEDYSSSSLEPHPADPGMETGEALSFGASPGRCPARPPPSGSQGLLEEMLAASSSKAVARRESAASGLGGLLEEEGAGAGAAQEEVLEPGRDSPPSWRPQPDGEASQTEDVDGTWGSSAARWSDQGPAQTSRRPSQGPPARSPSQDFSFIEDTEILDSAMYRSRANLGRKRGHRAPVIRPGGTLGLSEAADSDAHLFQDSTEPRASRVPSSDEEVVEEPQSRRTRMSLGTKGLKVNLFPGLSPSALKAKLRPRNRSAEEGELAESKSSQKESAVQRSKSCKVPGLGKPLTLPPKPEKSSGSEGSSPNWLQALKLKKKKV
UniProt O60784, whole entry, looked up: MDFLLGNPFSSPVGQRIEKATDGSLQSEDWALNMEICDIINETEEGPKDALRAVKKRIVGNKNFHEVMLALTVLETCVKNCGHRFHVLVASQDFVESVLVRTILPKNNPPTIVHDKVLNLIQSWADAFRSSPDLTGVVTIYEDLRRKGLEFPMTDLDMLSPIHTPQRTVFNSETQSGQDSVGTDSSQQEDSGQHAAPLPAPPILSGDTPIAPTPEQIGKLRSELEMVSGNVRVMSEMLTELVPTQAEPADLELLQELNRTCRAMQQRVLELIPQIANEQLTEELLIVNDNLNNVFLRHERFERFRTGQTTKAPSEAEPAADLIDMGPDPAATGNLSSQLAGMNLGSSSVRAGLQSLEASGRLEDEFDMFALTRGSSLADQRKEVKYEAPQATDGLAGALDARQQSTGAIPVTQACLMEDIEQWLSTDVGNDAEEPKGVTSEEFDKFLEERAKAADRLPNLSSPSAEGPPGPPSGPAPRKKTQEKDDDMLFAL

Compound: CC[C@@H](C)Nc1cc(C(=O)N[C@H]2C[C@H]3CC[C@@H](C2)N3c2ccc(C(=O)C3CC3)cn2)c(C)cc1C(N)=O [XL888]
Experiment: phosphopeptide melting temperature shift (XL888 minus DMSO); higher = stabilised by drug treatment
Settings: 100 µM; treatment time 2 h; layout: intact cells; SK-Mel 28
Procedure: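 Phospho-TPP in intact SK-Mel 28 cells treated with 100 uM XL888 or DMSO for 2 h, heated at 10 temperatures (37-67 C) for 3 min, soluble fraction TMT10plex-labelled and TiO2 phospho-enriched. Melting curves were fitted per phosphopeptide; the value is the melting point difference (drug minus vehicle) in each of two biological replicates.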

Target | phosphopeptide melting temperature shift [°C]
SRRM2 phosphosite_2706 (phosphosite position: 2706) (UniProt Q9UQ35) | 2.46
SRRM2 phosphosite_2727 (phosphosite position: 2727) (UniProt Q9UQ35) | 4.17
SRRM2 phosphosite_2729 (phosphosite position: 2729) (UniProt Q9UQ35) | 4.96
ST13 phosphosite_76 (phosphosite position: 76) (UniProt P50502) | 0.23
ST13 phosphosite_79 (phosphosite position: 79) (UniProt P50502) | 1.99 ± 0.11
STAMBPL1 phosphosite_242 (phosphosite position: 242) (UniProt Q96FJ0) | 0.488
STAT1 phosphosite_532 (phosphosite position: 532) (UniProt P42224) | 1.67 ± 1.1
STRAP phosphosite_335 (phosphosite position: 335) (UniProt Q9Y3F4) | 0.646 ± 0.2
STRAP phosphosite_338 (phosphosite position: 338) (UniProt Q9Y3F4) | 0.646 ± 0.2
STRN4 phosphosite_53 (phosphosite position: 53) (UniProt Q9NRL3) | 0.788
STRN4 phosphosite_276 (phosphosite position: 276) (UniProt Q9NRL3) | 6.79 ± 2.1
STXBP5 phosphosite_759 (phosphosite position: 759) (UniProt Q5T5C0) | 0.901
SUDS3 phosphosite_234 (phosphosite position: 234) (UniProt Q9H7L9) | 1.8 ± 1.4
SUDS3 phosphosite_237 (phosphosite position: 237) (UniProt Q9H7L9) | 1.72 ± 2.7
SURF2 phosphosite_190 (phosphosite position: 190) (UniProt Q15527) | 1.42 ± 0.43
SURF2 phosphosite_195 (phosphosite position: 195) (UniProt Q15527) | 1.47 ± 0.47
SUZ12 phosphosite_546 (phosphosite position: 546) (UniProt Q15022) | -1.06
SUZ12 phosphosite_583 (phosphosite position: 583) (UniProt Q15022) | 3.06 ± 1.1
SYNJ1 phosphosite_1220 (phosphosite position: 1220) (UniProt O43426) | 2.05
TANC2 phosphosite_400 (phosphosite position: 400) (UniProt Q9HCD6) | 0.863
TANC2 phosphosite_404 (phosphosite position: 404) (UniProt Q9HCD6) | 0.863
TBC1D10B phosphosite_687 (phosphosite position: 687) (UniProt Q4KMP7) | 3.1
TCP1 phosphosite_544 (phosphosite position: 544) (UniProt P17987) | 0.922
TCP1 phosphosite_551 (phosphosite position: 551) (UniProt P17987) | 1.84

Target | phosphopeptide melting temperature shift [°C]
TFPT phosphosite_252 (phosphosite position: 252) (UniProt P0C1Z6) | 3.25 ± 0.65
THOC5 phosphosite_312 (phosphosite position: 312) (UniProt Q13769) | 0.698 ± 0.51
THOC5 phosphosite_314 (phosphosite position: 314) (UniProt Q13769) | 0.698 ± 0.51
THOP1 phosphosite_16 (phosphosite position: 16) (UniProt P52888) | 1.09
THRAP3 phosphosite_698 (phosphosite position: 698) (UniProt Q9Y2W1) | -0.533
THRAP3 phosphosite_928 (phosphosite position: 928) (UniProt Q9Y2W1) | 0.66 ± 0.083
THUMPD3 phosphosite_215 (phosphosite position: 215) (UniProt Q9BV44) | 1.89
TJP1 phosphosite_125 (phosphosite position: 125) (UniProt Q07157) | 0.558 ± 0.15
TJP1 phosphosite_131 (phosphosite position: 131) (UniProt Q07157) | 0.597 ± 0.074
TMPO phosphosite_67 (phosphosite position: 67) (UniProt P42166) | 3.12 ± 2.3
TMPO phosphosite_74 (phosphosite position: 74) (UniProt P42166) | -4.45
TMPO phosphosite_310 (phosphosite position: 310) (UniProt P42166) | 0.527
TMPO phosphosite_351 (phosphosite position: 351) (UniProt P42166) | -0.56
TNKS1BP1 phosphosite_353 (phosphosite position: 353) (UniProt Q9C0C2) | 0.485 ± 0.26
TNKS1BP1 phosphosite_1024 (phosphosite position: 1024) (UniProt Q9C0C2) | 1.97 ± 1.9
TNKS1BP1 phosphosite_1545 (phosphosite position: 1545) (UniProt Q9C0C2) | -5.86
TNKS1BP1 phosphosite_1620 (phosphosite position: 1620) (UniProt Q9C0C2) | 4.17
TNKS1BP1 phosphosite_1621 (phosphosite position: 1621) (UniProt Q9C0C2) | 4.17
TNS1 phosphosite_338 (phosphosite position: 338) (UniProt Q9HBL0) | 0.7
TNS1 phosphosite_733 (phosphosite position: 733) (UniProt Q9HBL0) | 1.1 ± 1.6
TNS1 phosphosite_907 (phosphosite position: 907) (UniProt Q9HBL0) | 4.35
TNS1 phosphosite_915 (phosphosite position: 915) (UniProt Q9HBL0) | 0.434 ± 0.99
TNS1 phosphosite_963 (phosphosite position: 963) (UniProt Q9HBL0) | -0.273
TNS1 phosphosite_1297 (phosphosite position: 1297) (UniProt Q9HBL0) | 1.51 ± 2.3

Target | phosphopeptide melting temperature shift [°C]
TNS3 phosphosite_776 (phosphosite position: 776) (UniProt Q68CZ2) | 0.423
TOE1 phosphosite_5 (phosphosite position: 5) (UniProt Q96GM8) | -2.02
TOM1 phosphosite_164 (phosphosite position: 164) (UniProt O60784) | 0.241 ± 1.3
TOM1 phosphosite_355 (phosphosite position: 355) (UniProt O60784) | -0.989 ± 0.75
TOM1 phosphosite_359 (phosphosite position: 359) (UniProt O60784) | -0.399 ± 0.33
TP53BP1 phosphosite_265 (phosphosite position: 265) (UniProt Q12888) | 2.16 ± 0.95
TP53BP1 phosphosite_294 (phosphosite position: 294) (UniProt Q12888) | 1.41
TP53BP1 phosphosite_366 (phosphosite position: 366) (UniProt Q12888) | 1.22
TP53BP1 phosphosite_500 (phosphosite position: 500) (UniProt Q12888) | 1.65 ± 0.04
TP53BP1 phosphosite_552 (phosphosite position: 552) (UniProt Q12888) | 2.28 ± 0.59
TP53BP1 phosphosite_580 (phosphosite position: 580) (UniProt Q12888) | 2.18 ± 1
TP53BP1 phosphosite_659 (phosphosite position: 659) (UniProt Q12888) | 0.284
TP53BP1 phosphosite_660 (phosphosite position: 660) (UniProt Q12888) | 0.284
TP53BP1 phosphosite_662 (phosphosite position: 662) (UniProt Q12888) | 0.284
TP53BP1 phosphosite_1114 (phosphosite position: 1114) (UniProt Q12888) | 3.64 ± 0.98
TP53BP1 phosphosite_1756 (phosphosite position: 1756) (UniProt Q12888) | 2.73
TP53BP1 phosphosite_1758 (phosphosite position: 1758) (UniProt Q12888) | 2.74 ± 0.42
TP53BP1 phosphosite_1759 (phosphosite position: 1759) (UniProt Q12888) | 2.76 ± 0.45
TPPP phosphosite_32 (phosphosite position: 32) (UniProt O94811) | 1.41 ± 1.4
TRAFD1 phosphosite_414 (phosphosite position: 414) (UniProt O14545) | 2.77
TRIM25 phosphosite_100 (phosphosite position: 100) (UniProt Q14258) | 1.13 ± 0.86
TRIM25 phosphosite_435 (phosphosite position: 435) (UniProt Q14258) | 2.59
TRIM28 phosphosite_50 (phosphosite position: 50) (UniProt Q13263) | 1.45 ± 0.77

Shown comma-delimited: part of the list above.
Target,phosphopeptide melting temperature shift [°C]
THUMPD3 phosphosite_215 (phosphosite position: 215) (UniProt Q9BV44),1.89
TJP1 phosphosite_125 (phosphosite position: 125) (UniProt Q07157),0.558 ± 0.15
TJP1 phosphosite_131 (phosphosite position: 131) (UniProt Q07157),0.597 ± 0.074
